Assay results taken from patent publication US20040132188A1, “Use of non-complexing peptides for the preparation of a composition for transfection of a polynucleotide into a cell and compositions useful in gene therapy” (priority 2001, published 2004).
“Also recorded” adds a separate entry of the source. Not every detail of the peptide structures is certain; ends, links or a residue may be inferred. Ends that are not written are not given here.

Assays:
HeLa cells = test: Transfection in vitro, luciferase plasmid pTG11236; format: cell-based; details: 50 ng pTG11236, increasing amounts of peptide, day 1
Method: Cells were plated on 24 well plates at a density of 4×10^4 (293-EBNA ) or 7×10^4 (HeLa, Renca) cells/well in DMEM supplemented with 10% FCS. The next day, the medium was replaced by 200 μl serum-free DMEM and plasmid (PTG11056 or pTG11236)/peptide complexes or plasmid/peptide/lipid complexes were prepared in 30 μl 0.9% NaCl or 5% glucose. After 20 min at room temperature these complexes were added to the cells which were then incubated for 2-3 h at 37° C. and 5% CO2 before 1 ml serum-containing DMEM was added. Approximately 20 hours later, cells were lysed by addition of 100 μl 1× Promega lysis buffer, 20 μl of the lysates were analysed for luciferase activity. Proteins were quantified with the bicinchonic acid (BCA) colorimetric method (Smith, Anal. Biochem. 150 (1985), 76-85). […]
HeLa cells were seeded at a density of 6×10^4 cells on 24 well plates. The next day, cells were incubated with 200 μl serum-free medium, 30 μl of plasmid (50 ng)/peptide/lipid mixtures were added and incubated for 3 h at 37° C. in 5% CO2. 1 ml of DMEM+10% FCS was then added. […] Plates were stored at −80° C. until luciferase activity was measured of 20 μl of the cell lysate. […]
The series of ppTG1 derivatives listed in Material and Methods were tested for their gene transfer efficiencies in Hela cells. […] Luciferase activity was analyzed day 1 after transfection. […]

B6SJL mice, lungs = test: In vivo gene transfer after intravenous injection, luciferase activity in the lungs; details: pTG11236/peptide complexes intravenously injected, luciferase day 1
Method: Mice were sacrificed at day 1.
Lungs were tested for luciferase activity.

GLFRALLRLLRSLWRLLLRA [ppTG20]
transfection / gene transfer efficiency in vitro (HeLa cells): comparable to that of ppTG1 | gene transfer efficiency in the lung (B6SJL mice, lungs): even higher than with ppTG1; also recorded: at least comparable to gene transfer with the optimized lipoplexes; also recorded: higher gene expression; also recorded: more efficient gene transfer than ppTG1
